These results are taken from paper PMC4484422.

Sequences of proteins named here, by UniProt entry; tags and fusion partners are left off. Residues count along the entry.
UniProt P28799, residues 18-593: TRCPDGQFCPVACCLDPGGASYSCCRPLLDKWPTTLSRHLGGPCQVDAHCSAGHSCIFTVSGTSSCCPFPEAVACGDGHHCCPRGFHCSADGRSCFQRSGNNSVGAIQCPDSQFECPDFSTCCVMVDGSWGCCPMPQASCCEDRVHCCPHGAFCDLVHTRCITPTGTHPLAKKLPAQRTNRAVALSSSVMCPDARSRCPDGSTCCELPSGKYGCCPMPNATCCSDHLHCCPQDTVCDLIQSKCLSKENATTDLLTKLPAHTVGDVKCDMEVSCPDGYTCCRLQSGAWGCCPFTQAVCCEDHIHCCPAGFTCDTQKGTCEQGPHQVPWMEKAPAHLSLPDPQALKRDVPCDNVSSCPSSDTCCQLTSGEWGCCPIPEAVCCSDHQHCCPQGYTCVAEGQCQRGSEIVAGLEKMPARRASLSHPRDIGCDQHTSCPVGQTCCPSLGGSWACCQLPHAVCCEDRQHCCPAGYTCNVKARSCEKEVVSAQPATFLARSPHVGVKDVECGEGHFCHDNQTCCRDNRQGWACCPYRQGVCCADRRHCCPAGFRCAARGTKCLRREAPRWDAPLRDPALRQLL
UniProt Q16643: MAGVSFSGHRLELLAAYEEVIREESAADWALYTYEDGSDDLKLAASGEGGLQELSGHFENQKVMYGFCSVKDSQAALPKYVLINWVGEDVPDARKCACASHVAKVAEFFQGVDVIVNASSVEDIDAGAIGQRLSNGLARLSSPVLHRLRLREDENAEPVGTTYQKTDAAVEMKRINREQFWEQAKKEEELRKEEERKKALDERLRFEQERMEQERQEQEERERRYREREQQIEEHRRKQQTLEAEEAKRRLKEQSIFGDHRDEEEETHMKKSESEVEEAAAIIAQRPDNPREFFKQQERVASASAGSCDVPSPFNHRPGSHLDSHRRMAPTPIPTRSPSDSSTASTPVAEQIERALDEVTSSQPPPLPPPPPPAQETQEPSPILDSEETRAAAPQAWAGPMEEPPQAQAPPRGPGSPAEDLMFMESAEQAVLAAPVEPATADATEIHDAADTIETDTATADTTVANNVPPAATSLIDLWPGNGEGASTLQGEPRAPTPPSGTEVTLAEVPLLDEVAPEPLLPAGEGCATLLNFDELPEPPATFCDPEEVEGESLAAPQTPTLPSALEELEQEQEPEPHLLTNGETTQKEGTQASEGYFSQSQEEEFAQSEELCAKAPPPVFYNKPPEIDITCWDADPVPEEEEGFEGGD

Results are given in words; binding and its absence hold for the method and conditions named. Binding seen in cells or lysates may run through a third protein. These calls come from enrichment with a bait or labelling near it, and not all partners need be listed.

The assay has as its target recombinant His-tagged progranulin (UniProt P28799). The assay is described as follows: affinity purification with mass spectrometry; 10 mg NP-40 lysate of serum-starved 5637 cells (stimulated with 40 nM progranulin for 5 min), precleared with Ni-NTA-agarose, incubated with or without 7 ug recombinant His-tagged progranulin overnight at 4°C, then Ni-NTA-agarose beads 1 h; SDS-PAGE, Coomassie, excised bands analysed by MS/MS; only the target purified.

Regarding “drebrin (developmentally regulated brain protein) (from UniProt Q16643 1-649)”, the binding entry is recorded as “binds”.
